## Library screening results

Measurements from “University of Dundee, Small-Polar-MMV Screening Library” (2021), ChEMBL document CHEMBL3988442.

Mtb growth Cornell: 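Whole-cell assay for inhibitors of Mycobacterium tuberculosis growth, labelled Cornell in the record; the read-out is not stated. The concentration is filed as 10 mM, unlikely as a test dose, so the dose is not known. The record gives no direction; compounds strong in two other growth screens of this library score well above the rest, so higher reads as stronger inhibition. About 53,000 compounds were tested under these conditions; 1.7% (about 900) showed 50% or more at least once.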
Mtb heat-shock: 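Assay on Mycobacterium tuberculosis, filed only as a heat shock assay from Cornell; the read-out is not stated. The concentration is filed as 10 mM, unlikely as a test dose, so the dose is not known. The record gives no direction; compounds that gave an IC50 in retests scored well above the rest, so higher reads as stronger inhibition. Of about 69,000 compounds tested this way, about 930 (1.4%) reached 50% or more in at least one test.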

Each number is a percent effect as filed. The controls that fix the scale are not given in the record; negative values are as filed. The compounds are a random part of those screened. A dash means the value is not listed here; it may have been measured.

| Compound | Mtb growth Cornell | Mtb heat-shock |
|---|---|---|
| `O=C(COC1CCCC1)NCCCn1nc2ccccn2c1=O` | 7.646 | 17.42 |
| `COCCC1(CNC(=O)Nc2ccc(-n3cccn3)cc2)CCC1` | 21.41 | 20.72 |
| `CCCC(O)CN1CCC(=O)N(CCOC)Cc2ccccc21` (stereo not drawn) | -22.05 | 30.93 |
| `CC(=O)c1cc(C(=O)N2CCN(C)Cc3ccccc32)n(C)c1` | -57.04 | -10.07 |
| `Cc1cccc2c1NC1(CCOCC1)NC2=O` | 11.92 | 0.9042 |
| `Cc1ccc(N2CCc3ncc(CNc4ccccn4)n3CC2)nn1` | - | -28.66 |
| `Cc1noc(Cl)c1CCC(=O)N1CCCCC1Cn1cccn1` (stereo not drawn) | -3.884 | -20.4 |
| `CN(C)c1nc2c(c(=O)[nH]1)CCN(C(=O)c1ccc(=O)[nH]c1)C2` | 18.25 | -8.505 |
| `O=C(Cc1ccc(F)cc1)NCCNCC1CNc2ccnn2C1` (stereo not drawn) | - | -7.435 |
| `Cc1nc(-n2nc(-c3cccs3)cc2N)[nH]c(=O)c1C` | 75.1 | 103.7 |
| `CC(CN1CCC(c2ccccc2)CC1)n1cnc2ccccc21` (stereo not drawn) | 35.4 | -10.44 |
| `[H][C@@]12CCN(C[C@@H]1CC)[C@@H](CNC(=O)Nc1cccc(C#N)c1)C2` | - | -34.94 |
| `CC(C)(C#N)c1ccccc1CN1CCC(N2CCCC2=O)CC1` | - | -11.61 |
| `COCCN(C)C[C@H]1CC[C@@H](Cc2ccc3c(cnn3C)c2)O1` | 17.23 | -10.08 |
| `COC(=O)c1ccc(-c2noc(CN(CCO)Cc3cccs3)n2)cc1` | 23.96 | -9.421 |
| `Cc1noc(NCc2ccc(F)cc2F)n1` | -38.13 | -23.01 |
| `COc1ncccc1NC(=O)C1CC(=O)N(Cc2ccccn2)C1` (stereo not drawn) | 1.484 | 9.049 |
| `CCOC(C)c1noc(CN2CCCNCC2)n1` (stereo not drawn) | -21.48 | -30.08 |
| `Cc1ccoc1C(=O)N1CCCc2c(c(=O)n(C)n2C)C1` | -6.69 | -17.77 |
| `Cc1[nH]ncc1C(=O)N1CCCC(c2ccn[nH]2)C1` (stereo not drawn) | - | 3.859 |
| `O=C(O)C(F)(F)F.[H][C@]12CCC[C@@H](CNc3ncccn3)[C@@]1([H])CN(Cc1cnn(C)c1)C2` | - | 2.206 |
| `COc1ccc(Cl)cc1C(C(=O)O)N1CCSCC1` (stereo not drawn) | - | 6.315 |
| `CC(C)Nc1nc2c(c(N(C)C)n1)CCN(C(=O)c1cc[nH]n1)CC2` | 33.23 | 6.216 |
| `COc1cccc(CC(=O)NCC(Cc2ccc(F)cc2)C(N)=O)c1` (stereo not drawn) | -0.7798 | 10.42 |
| `Cc1ccc(CN(C)C(=O)c2cc3c(c(S(N)(=O)=O)c2)CCC3)o1` | 17.11 | -1.958 |
| `CCn1cnnc1CNC(=O)N1CCN(c2nccs2)CC1` | -33.21 | -17.32 |
| `Cc1nn(C)c(C)c1CC(C)NC(=O)NCc1ccn(C(C)C)n1` (stereo not drawn) | -12.91 | -9.155 |
| `CN(C(=O)c1cccc(Cl)c1)C1CCN(c2ccccn2)CC1` | - | 5.422 |
| `CC(=O)N1CCC(c2nccnc2C)CC1` | 8.511 | 15.75 |
| `CCCN(CC1CC1)C(=O)Nc1ccc(N2CCSCC2)cc1C` | 108.2 | -3.701 |
| `Cc1cc(C2CCC2)nc(NCC(C)(C)N2CCOCC2)n1` | -24.95 | -0.7079 |
| `Cc1cc(NC(=O)CCn2nc(C)c3ccccc32)n(C)n1` | -27.21 | 9.244 |
| `CCS(=O)(=O)N1CCc2ccc(NC(=O)Nc3cccc(F)c3)cc21` | 10.65 | 26.57 |
| `COc1nc2c(cc1C(=O)N1CC[C@H](CO)[C@@H](O)C1)CCC2` | 17.41 | -0.525 |
| `CN(C)c1ncc(-c2cc(C(=O)O)n(CC3CC3)c2)cn1` | 80.35 | 27.05 |
| `CCc1nc2ccccc2n1C(CC)C(=O)N(C)CCc1noc(C)n1` (stereo not drawn) | -3.993 | 1.327 |
| `COCC(=O)Nc1ccccc1-c1ccc(=O)n(C)n1` | 26.11 | 5.933 |
| `CC(C)c1cc(N2CCCC3(CCN(C)C3)C2)ncn1` (stereo not drawn) | 13.85 | 6.555 |
| `COCc1c(Cl)cccc1NC(=O)NCc1cccc(N(C)C)n1` | - | 12.08 |
| `Cn1nc(C2CCCN(Cc3ccsc3)C2)c2nccnc21` (stereo not drawn) | -23.83 | -3.099 |
| `Cc1cc(CN2CCN(C(=O)NC(C)c3cccnc3)CC2)on1` (stereo not drawn) | - | -7.365 |
| `CCn1ccnc1CN(C)c1cc(C2CC2)ncn1` | 17.57 | -16.04 |
| `COc1ccc(C2Nc3cc(Cl)ccc3C3=NCCN32)cc1OC` (stereo not drawn) | - | 26.25 |
| `CC(C)NC(=O)CN(C)C(=O)c1c(Cl)c2ccccc2n1C` | -0.8272 | -4.139 |
| `CO[C@H]1CN(C(C)C)C[C@@H]1NC(=O)Nc1ccc2oc(C)cc2c1` | 10.68 | -13.35 |
| `O=C(O)C(F)(F)F.[H][C@]12OCCC[C@]1([H])N(C(=O)COC)C[C@H]2OCc1cccnc1` | 14.67 | -12.25 |
| `CC(C)c1nccn1-c1cncc(C2CCCN(C3CCCCC3)C2)n1` (stereo not drawn) | - | -13.58 |
| `Nc1cc(-c2nccnc2N2CCCC2)c2cc[nH]c2n1` | -1.136 | 16.01 |
| `Cn1cnc2c1CCN(CCOc1ccc3c(c1)CCC(=O)N3)C2` | -44.84 | -31.44 |
| `OC(COCc1cccs1)CN1CCC(c2ccn[nH]2)CC1` (stereo not drawn) | -18.62 | 18.86 |
| `Cn1ncc2c1CCCC2NCc1cccc2c1OCCCO2` (stereo not drawn) | 0.2601 | -2.862 |
| `COc1ccc(-c2ccnc(N)c2)c(C)c1` | 9.13 | -6.998 |
| `CN(C)c1ncnc2c1CCN(S(=O)(=O)c1cccc3nsnc13)C2` | -52.59 | -7.136 |
| `CC1CN(CCOc2ccccc2C#N)CCN1Cc1nccn1C` (stereo not drawn) | 14.3 | -10.49 |
| `CCOc1cc(C)nc(N2CCN(Cc3nccn3CC)CC2)n1` | 7.652 | -27.78 |
| `O=C(NCCc1nccs1)c1n[nH]c2c1CCC2` | 42.7 | -8.664 |
| `COc1ccc(C2=NOC(C#N)C2)cc1` (stereo not drawn) | -6.388 | 12.51 |
| `COCC(=O)NCc1cccc(OCCN(C)C2CCOCC2)c1` | 21.89 | -21.74 |
| `Fc1ccc(F)c(CN2CCC(c3n[nH]c4ncccc34)CC2)c1.O=C(O)CC(O)(CC(=O)O)C(=O)O` | 34.19 | -14.52 |
| `[H][C@@]12CN(C(C)=O)C[C@]1([H])C(=O)N(CC1CC1)C2` | - | 12.57 |
| `CC(C)(C)c1nnc(CN2CCN(S(C)(=O)=O)CC2)o1` | - | -7.447 |
| `c1ccc(Cc2nnc(CN3CCOC(Cn4cccn4)C3)o2)cc1` (stereo not drawn) | - | -10.73 |
| `CNC(=O)C(NC(=O)c1c(C)noc1C)c1ccc(F)c(F)c1` (stereo not drawn) | -22.78 | -2.865 |
| `[H][C@]12CN(c3ccccn3)CCN1C[C@H](CO)[C@H]2c1ccccc1` | 0.5186 | 10.15 |

Once more, the final 4:

Compound,Mtb growth Cornell,Mtb heat-shock
CC(C)(C)c1nnc(CN2CCN(S(C)(=O)=O)CC2)o1,-,-7.447
c1ccc(Cc2nnc(CN3CCOC(Cn4cccn4)C3)o2)cc1 (stereo not drawn),-,-10.73
CNC(=O)C(NC(=O)c1c(C)noc1C)c1ccc(F)c(F)c1 (stereo not drawn),-22.78,-2.865
[H][C@]12CN(c3ccccn3)CCN1C[C@H](CO)[C@H]2c1ccccc1,0.5186,10.15